Assay results from US8741868B2, “Pharmaceutical composition including an HIF-2 alpha inhibitor as an active ingredient for preventing or treating arthritis” (Gwangju Institute of Science and Technology, priority 2010, dated 2014).
At least one structure is not confirmed: it was looked up by name or label, or the drawing left a doubt.

System: HIF-2α
Test: Expression of HIF-2α in mouse knee joint chondrocytes (RT-PCR, qRT-PCR, western blot)
Assay type: cell-based
Details: signal pathway inhibitor in chondrocytes
Description: In order to induce pathological condition of cartilage degeneration in knee joint chondrocytes of mouse (Charles River, Japan), the cells were treated with interleukin 1β (IL-1β, Calbiochem, USA), IL-17 (R&D Systems, USA), TNF-α (R&D Systems, USA) or IL-21 (R&D Systems, USA), which are known as proinflammatory cytokines. The expression level of HIF-2α was investigated by RT-PCR, qRT-PCR and western blot. The mouse knee joint chondrocytes were isolated from the knee joint of 8-day-old ICR mouse (Charles River, Japan) and cultured in DMEM (Gibco, USA) containing 10% (v/v) fetal bovine serum (Gibco, USA), 50 μg/mL streptomycin (Sigma-Aldrich, USA) and 50 unit/mL penicillin (Sigma-Aldrich, USA). As a result, it was confirmed that whereas the expression of HIF-2α is increased by the proinflammatory cytokines, it is not affected by the anti-inflammatory cytokines IL-4 (R&D Systems, USA), IL-10 (R&D Systems, USA) and […] (R&D Systems, USA) (FIGS. 2a and 2b). IL-1β activates various signal transduction pathways in chondrocytes. […] Accordingly, it was confirmed through RT-PCR and western blot (FIG. 2d) and quantification of HIF-2α transcripts by real-time RT-PCR (qRT-PCR) that NFkB and JNK regulate the expression of HIF-2α (FIG. 2e). […]

Oc1c2ccccc2c2c3c(cccc13)N=N2 [SP600125, reference compound] was tested, and the “expression of HIF-2α transcripts and proteins” value was “decreased remarkably”.
